The values that follow come from patent US20050261260A1, “Combination of a CDK inhibitor and mitoxantrone” (Cyclacel Limited, priority 2002, published 2005).

Converted amounts (≈) assume the structure as drawn. Where two headings read alike, the source gives them in different places.

The subject of the test is prostate tumor cells (PC-3). The test can be described thus: cells. The conditions noted are these: Homo sapiens, 24 h, read-out: IC50 (concentration listed as 100 % IC50), PC-3.

For `CC[C@H](CO)Nc1nc(NCc2ccccc2)c2ncn(C(C)C)c2n1` [Roscovitine, 6-benzylamino-2-[(R)-1-ethyl-2-hydroxyethylamino]-9-isopropylpurine], the IC50 (Table 3, roscovitine 24 h then mitoxantrone 24 h) is 21 µg/mL (≈ 59.2 µM); the IC50 (Table 5, mitoxantrone 24 h then roscovitine 24 h) came out at 30 µg/mL (≈ 84.6 µM); the IC50 (Table 7, concurrent 24 h exposure) was determined as 26 µg/mL (≈ 73.4 µM).
